Test results published in patent publication US20080085889A1, “Amidomethyl-Substituted 1-(Carboxyalkyl) Cyclopentyl-Carbonylamino-Benzazepine-N-Acetic Acid Compounds, Process and Intermediate Products for Their Preparation and Pharmaceutical Compositions Containing Them” (SOLVAY PHARMACEUTICALS GmbH, priority 2003, published 2008).

Test system: NEP (prepared from pig kidney cortex)
Test: Enzymatic breakdown of CNP and VIP by NEP and its inhibition, in vitro, HPLC
Format: biochemical
Details: no inhibitor, 37° C.
Experimental: The inhibition of the enzymatic breakdown of CNP and VIP by the compounds used according to the invention was measured in an enzymatic in vitro assay according to the following protocol:
All test compounds were dissolved in DMSO at 10 mM and further diluted with assay buffer.
80 μl of assay buffer, 10 μl of enzyme working solution (NEP or hSEP) and 10 μl of peptide stock solution (VIP or CNP) were mixed in an Eppendorf vial and incubated for 120 min. at 37° C. The enzymatic reaction was subsequently terminated by heating to 95° C. for 5 min. After centrifugation (Heraeus Biofuge B, 3 min) the supernatant was subjected to HPLC.
70 μl of assay buffer, 10 μl of enzyme working solution (NEP or hSEP) and 10 μl of a test compound solution were mixed in an Eppendorf vial and preincubated at 37° C. for 15 minutes. Then, 10 μl of peptide stock solution (VIP or CNP) was added and the reaction mixture was incubated at 37° C. for 60 min. to allow enzymatic hydrolysis. […]
All peptides were detected by absorbance at 214 nm (UV spectroscopy). The percentage (=%) of hydrolysis was calculated on the basis of the peak area of the undegraded peptide for an enzyme containing sample Y in correlation to a sample containing the same concentration of peptide without enzyme (blank) by the following equation: % hydrolysis=100*(blank−Y) […]

| Substance | breakdown of CNP by NEP, degradation at t = 2 h [%] | breakdown of VIP by NEP, degradation at t = 2 h [%] |
| --- | --- | --- |
| CNP: c-type natriuretic peptide, CNP (32-53), substrate of NEP and hSEP; supplier Bachem [reference compound] | 39 |  |
| VIP: vasoactive intestinal peptide, substrate of NEP and hSEP; supplier Bachem [reference compound] |  | 28 |
